Results taken from the supplement of paper PMC12823440, “Inhibitors supercharge kinase turnover through native proteolytic circuits” (Nature, 2025).
Some of the results follow. The calls rarely recur for the same compound in another form.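 Kinases, fused to nanoluciferase, were expressed in K562 cells; luminescence was measured every 4 h from 2 to 18 h as percent of control (DMSO = 100%, positive control = 0%). A time point is decreased if signal falls significantly (2 sigma). Hits were called by the authors by a rule that is not shown; the count of time points alone does not decide it.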

Sequences of proteins named here, by UniProt entry; tags and fusion partners are left off. A change or cut given only in a name is not applied to a line headed by its entry.
UniProt P07949, whole entry, looked up: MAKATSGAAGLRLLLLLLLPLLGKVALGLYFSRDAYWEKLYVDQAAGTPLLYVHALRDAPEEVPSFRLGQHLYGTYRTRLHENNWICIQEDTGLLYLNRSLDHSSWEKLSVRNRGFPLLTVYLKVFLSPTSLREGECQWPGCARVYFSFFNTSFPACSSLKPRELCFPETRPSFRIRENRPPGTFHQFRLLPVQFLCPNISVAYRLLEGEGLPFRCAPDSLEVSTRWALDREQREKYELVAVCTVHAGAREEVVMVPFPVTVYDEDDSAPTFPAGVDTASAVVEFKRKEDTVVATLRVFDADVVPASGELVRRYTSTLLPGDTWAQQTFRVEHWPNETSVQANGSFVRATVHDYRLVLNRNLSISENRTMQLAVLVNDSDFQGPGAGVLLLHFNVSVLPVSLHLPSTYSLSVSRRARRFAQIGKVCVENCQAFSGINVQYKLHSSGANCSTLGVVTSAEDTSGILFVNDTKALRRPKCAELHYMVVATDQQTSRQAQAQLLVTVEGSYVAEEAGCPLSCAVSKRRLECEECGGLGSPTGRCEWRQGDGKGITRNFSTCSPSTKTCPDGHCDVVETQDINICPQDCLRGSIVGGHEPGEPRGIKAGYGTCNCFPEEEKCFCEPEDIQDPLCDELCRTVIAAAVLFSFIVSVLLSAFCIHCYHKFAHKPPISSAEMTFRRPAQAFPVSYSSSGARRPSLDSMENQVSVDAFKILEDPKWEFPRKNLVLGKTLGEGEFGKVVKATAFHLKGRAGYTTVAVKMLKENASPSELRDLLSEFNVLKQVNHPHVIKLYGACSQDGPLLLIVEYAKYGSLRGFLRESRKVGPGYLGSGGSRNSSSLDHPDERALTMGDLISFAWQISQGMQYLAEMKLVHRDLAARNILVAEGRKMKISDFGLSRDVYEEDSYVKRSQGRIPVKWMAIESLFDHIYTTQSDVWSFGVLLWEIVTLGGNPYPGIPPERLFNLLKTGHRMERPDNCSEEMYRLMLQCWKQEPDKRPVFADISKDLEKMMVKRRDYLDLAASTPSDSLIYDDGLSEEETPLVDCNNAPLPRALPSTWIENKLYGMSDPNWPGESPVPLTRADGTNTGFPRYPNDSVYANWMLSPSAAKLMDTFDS
UniProt P07949, whole entry M918T, looked up: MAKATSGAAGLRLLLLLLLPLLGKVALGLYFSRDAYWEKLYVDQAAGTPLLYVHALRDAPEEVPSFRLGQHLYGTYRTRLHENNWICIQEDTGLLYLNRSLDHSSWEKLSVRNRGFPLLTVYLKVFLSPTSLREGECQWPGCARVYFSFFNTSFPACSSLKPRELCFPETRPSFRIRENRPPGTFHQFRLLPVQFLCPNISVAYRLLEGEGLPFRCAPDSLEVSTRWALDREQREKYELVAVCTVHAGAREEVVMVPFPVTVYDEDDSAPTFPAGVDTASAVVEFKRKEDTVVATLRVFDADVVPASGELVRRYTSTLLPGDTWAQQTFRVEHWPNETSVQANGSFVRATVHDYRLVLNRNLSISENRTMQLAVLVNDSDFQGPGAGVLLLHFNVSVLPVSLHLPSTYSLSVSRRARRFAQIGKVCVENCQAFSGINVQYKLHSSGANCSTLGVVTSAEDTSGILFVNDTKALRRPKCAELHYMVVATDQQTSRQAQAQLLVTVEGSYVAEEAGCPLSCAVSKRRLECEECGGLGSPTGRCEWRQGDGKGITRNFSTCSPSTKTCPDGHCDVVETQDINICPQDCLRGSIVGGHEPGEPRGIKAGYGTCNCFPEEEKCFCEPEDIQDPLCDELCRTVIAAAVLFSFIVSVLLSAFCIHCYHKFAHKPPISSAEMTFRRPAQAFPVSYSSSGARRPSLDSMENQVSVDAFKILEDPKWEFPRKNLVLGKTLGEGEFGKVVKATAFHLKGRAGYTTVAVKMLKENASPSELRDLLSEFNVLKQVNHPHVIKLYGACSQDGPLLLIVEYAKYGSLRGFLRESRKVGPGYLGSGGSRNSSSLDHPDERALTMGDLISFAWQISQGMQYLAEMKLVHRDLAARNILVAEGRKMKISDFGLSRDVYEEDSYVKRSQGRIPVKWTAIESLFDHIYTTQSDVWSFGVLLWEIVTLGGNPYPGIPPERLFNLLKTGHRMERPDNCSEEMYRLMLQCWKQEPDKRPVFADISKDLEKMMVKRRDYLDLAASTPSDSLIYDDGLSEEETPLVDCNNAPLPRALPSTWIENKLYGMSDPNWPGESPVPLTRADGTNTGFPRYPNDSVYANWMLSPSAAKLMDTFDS
UniProt Q9BRS2: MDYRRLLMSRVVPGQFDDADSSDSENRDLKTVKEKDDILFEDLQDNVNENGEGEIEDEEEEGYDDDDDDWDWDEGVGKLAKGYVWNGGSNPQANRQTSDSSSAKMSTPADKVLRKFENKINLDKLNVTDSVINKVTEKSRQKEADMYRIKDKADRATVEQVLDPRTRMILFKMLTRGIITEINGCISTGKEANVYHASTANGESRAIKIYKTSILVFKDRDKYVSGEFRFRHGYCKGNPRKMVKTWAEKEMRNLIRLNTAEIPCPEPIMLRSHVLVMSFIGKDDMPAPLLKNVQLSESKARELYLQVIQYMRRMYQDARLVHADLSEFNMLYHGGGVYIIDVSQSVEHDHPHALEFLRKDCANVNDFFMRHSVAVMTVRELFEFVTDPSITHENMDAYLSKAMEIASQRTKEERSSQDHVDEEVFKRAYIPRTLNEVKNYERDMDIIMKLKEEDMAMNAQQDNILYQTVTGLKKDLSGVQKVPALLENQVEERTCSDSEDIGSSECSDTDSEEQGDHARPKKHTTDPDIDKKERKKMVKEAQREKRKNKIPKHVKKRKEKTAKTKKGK
UniProt Q01974, whole entry: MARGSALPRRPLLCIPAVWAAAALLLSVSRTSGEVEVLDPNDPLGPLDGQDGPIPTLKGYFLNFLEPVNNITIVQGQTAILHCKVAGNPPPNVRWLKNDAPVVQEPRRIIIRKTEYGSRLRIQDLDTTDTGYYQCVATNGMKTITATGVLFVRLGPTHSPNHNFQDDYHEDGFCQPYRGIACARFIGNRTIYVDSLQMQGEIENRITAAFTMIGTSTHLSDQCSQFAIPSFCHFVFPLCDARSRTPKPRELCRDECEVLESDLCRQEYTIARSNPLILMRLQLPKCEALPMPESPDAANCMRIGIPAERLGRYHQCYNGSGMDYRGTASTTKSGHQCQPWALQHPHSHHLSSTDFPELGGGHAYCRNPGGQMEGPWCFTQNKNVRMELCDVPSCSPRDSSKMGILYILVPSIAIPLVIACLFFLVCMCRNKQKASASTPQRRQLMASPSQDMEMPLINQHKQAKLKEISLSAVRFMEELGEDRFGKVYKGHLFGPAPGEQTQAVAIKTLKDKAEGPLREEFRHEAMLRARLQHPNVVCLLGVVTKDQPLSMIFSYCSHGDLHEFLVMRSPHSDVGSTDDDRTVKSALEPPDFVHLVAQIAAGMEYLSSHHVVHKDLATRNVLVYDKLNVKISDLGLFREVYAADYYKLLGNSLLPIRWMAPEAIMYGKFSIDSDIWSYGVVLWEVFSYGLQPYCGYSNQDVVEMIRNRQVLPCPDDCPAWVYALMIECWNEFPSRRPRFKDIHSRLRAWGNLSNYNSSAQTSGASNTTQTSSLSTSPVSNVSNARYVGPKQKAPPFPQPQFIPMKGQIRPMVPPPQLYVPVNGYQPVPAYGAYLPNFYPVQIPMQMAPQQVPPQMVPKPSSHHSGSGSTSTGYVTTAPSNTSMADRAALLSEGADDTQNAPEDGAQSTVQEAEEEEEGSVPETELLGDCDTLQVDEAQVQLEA
UniProt Q15418, whole entry: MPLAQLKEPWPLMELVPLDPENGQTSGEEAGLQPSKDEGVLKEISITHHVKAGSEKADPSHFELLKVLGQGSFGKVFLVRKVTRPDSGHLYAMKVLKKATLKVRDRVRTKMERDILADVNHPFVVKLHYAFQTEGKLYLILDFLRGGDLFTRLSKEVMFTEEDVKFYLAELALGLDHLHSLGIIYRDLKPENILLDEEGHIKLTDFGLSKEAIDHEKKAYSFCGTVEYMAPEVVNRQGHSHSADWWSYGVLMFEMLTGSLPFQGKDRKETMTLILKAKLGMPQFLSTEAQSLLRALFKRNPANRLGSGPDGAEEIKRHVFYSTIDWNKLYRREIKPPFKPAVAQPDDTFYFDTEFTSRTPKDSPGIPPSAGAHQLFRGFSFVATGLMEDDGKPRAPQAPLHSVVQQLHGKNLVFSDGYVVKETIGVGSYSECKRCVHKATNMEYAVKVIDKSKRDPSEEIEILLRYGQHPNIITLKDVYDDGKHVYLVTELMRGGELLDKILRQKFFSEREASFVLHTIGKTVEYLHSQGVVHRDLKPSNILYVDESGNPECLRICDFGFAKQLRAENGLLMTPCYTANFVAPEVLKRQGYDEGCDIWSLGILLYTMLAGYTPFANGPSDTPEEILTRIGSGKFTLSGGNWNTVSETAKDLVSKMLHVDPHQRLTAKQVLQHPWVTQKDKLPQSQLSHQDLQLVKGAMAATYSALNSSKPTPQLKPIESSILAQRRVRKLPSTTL
UniProt Q9NYA1, whole entry: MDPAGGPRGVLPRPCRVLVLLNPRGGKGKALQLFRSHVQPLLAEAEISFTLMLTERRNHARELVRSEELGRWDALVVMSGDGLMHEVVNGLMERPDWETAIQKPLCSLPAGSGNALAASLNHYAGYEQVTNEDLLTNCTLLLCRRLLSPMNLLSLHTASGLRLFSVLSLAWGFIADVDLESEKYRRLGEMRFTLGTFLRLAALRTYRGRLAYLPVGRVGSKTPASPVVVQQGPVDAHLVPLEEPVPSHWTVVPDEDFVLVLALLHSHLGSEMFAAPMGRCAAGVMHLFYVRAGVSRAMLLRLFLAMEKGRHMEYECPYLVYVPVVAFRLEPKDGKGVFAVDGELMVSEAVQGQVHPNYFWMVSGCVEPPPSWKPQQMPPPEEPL
UniProt Q9Y6E0: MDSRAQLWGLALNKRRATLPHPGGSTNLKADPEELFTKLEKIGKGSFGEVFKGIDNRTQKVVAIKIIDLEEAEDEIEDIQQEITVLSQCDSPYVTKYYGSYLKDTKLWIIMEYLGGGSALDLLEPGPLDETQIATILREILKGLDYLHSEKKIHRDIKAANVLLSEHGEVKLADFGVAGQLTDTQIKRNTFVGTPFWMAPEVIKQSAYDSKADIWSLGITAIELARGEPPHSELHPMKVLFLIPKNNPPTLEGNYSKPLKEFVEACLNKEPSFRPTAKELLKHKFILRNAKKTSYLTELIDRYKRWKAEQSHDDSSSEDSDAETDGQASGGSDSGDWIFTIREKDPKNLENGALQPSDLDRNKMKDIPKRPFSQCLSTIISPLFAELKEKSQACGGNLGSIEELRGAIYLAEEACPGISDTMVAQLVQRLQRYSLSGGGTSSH
UniProt Q13546: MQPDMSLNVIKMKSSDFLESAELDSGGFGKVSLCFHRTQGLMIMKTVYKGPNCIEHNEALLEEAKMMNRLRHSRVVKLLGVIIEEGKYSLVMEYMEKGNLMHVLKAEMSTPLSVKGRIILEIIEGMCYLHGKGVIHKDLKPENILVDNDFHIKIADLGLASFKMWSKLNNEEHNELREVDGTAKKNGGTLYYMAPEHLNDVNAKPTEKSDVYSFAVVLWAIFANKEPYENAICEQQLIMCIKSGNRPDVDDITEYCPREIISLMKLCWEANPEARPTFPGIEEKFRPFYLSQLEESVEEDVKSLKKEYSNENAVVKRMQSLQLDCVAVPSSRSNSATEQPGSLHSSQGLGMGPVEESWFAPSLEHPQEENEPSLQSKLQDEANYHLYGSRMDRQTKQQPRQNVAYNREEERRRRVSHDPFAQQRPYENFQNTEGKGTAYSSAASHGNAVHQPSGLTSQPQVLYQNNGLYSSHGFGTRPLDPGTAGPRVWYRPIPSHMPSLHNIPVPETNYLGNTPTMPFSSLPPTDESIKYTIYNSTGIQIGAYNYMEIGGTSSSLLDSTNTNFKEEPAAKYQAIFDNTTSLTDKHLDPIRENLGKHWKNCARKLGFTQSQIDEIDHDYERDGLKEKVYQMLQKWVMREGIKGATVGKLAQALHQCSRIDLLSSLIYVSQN

Experiments:
Test in all cases: kinase-Nluc reporter destabilization hit call (1 = scored as downregulated) (binary); higher = compound decreases kinase abundance
Details in all cases: K562; 2-18 h
[1] = molecular target: RET (UniProt P07949)
[2] = molecular target: RET_M918T (clone: RET_mut) (UniProt P07949)
[3] = molecular target: RIOK1 (UniProt Q9BRS2)
[4] = molecular target: RIPK2 (UniProt O43353)
[5] = molecular target: ROR2 (UniProt Q01974)
[6] = molecular target: RPS6KA1 (UniProt Q15418)
[7] = molecular target: SPHK1 (UniProt Q9NYA1)
[8] = molecular target: SRC (UniProt P12931)
[9] = molecular target: STK24 (UniProt Q9Y6E0)
[10] = molecular target: RIPK1 (UniProt Q13546)

Measured: kinase-Nluc reporter destabilization hit call

CN1C(=O)[C@@H](NC(=O)c2cc(Cc3ccccc3)on2)COc2ccccc21 (10 µM)
inactive: [1] 0 | [2] 0 | [3] 0 | [4] 0 | [5] 0 | [6] 0 | [7] 0 | [8] 0 | [9] 0

CC(C)(Oc1ccc(Cl)cc1)C(=O)Nc1ccc(OCc2ccc(C#N)cc2)cc1 [AMPK activator 4] (10 µM)
inactive: [1] 0 | [2] 0 | [3] 0 | [10] 0 | [4] 0 | [5] 0 | [6] 0 | [7] 0 | [8] 0 | [9] 0

N#Cc1cc(N2CCC(C(=O)N3N=CC[C@H]3c3cc(F)cc(F)c3)CC2)ncn1 (10 µM)
inactive: [1] 0 | [2] 0 | [3] 0 | [4] 0 | [5] 0 | [6] 0 | [7] 0 | [8] 0 | [9] 0

CCCCC(=O)OCC(=O)[C@]1(O)Cc2c(O)c3c(c(O)c2[C@@H](O[C@H]2C[C@H](NC(=O)C(F)(F)F)[C@H](O)[C@H](C)O2)C1)C(=O)c1c(OC)cccc1C3=O [Valrubicin] (10 µM)
inactive: [1] 0 | [2] 0 | [3] 0 | [10] 0 | [4] 0 | [5] 0 | [6] 0 | [7] 0 | [8] 0 | [9] 0

Nc1ccc(-c2nc3ccc(-c4nc5ccc(N)cc5[nH]4)cc3[nH]2)cc1 (10 µM)
inactive: [1] 0 | [2] 0 | [3] 0 | [10] 0 | [4] 0 | [5] 0 | [6] 0 | [7] 0 | [8] 0 | [9] 0

CCC[C@H](C)Oc1nc(N)c2[nH]c(=O)n(CCCCCN3CCCCC3)c2n1 (10 µM)
inactive: [1] 0 | [2] 0 | [3] 0 | [10] 0 | [4] 0 | [5] 0 | [6] 0 | [7] 0 | [8] 0 | [9] 0

Nc1ccc(O)c(C(=O)O)c1 [5-Aminosalicylic Acid] (10 µM)
inactive: [1] 0 | [2] 0 | [3] 0 | [10] 0 | [4] 0 | [5] 0 | [6] 0 | [7] 0 | [8] 0 | [9] 0
